Laboratory results: PubChem BioAssay AID743121 (NCATS, 2013)
Aim: 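Knock-downs that sensitise breast cancer cells to camptothecin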 (primary screen). Cells: MDA-MB-231 cells, a human breast cancer line. Reagent: single siRNA against human genes, 20 nM siRNA (0.8 pmol per well). Duration: 120 h (drug added 48 h after transfection, read 72 h later). Treatment: camptothecin 20 nM (about EC30) for 72 h; vehicle 0.1% DMSO in parallel plates. Read-out: 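CellTiter-Glo ATP signal, scaled to control siRNA as percent viability; sensitisation given as log2 of untreated divided by camptothecin-treated viability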. Scale: log2 vehicle/camptothecin viability: higher = stronger sensitisation to camptothecin. Call rule: 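Active genes have an RSA gene-level p-value below 0.001, computed from the ratios of their separate siRNAs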.
In all, the deposit lists about 26,000 reagents; below is a part drawn at random. 167 of all reagents (0.63%) were called active. 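Calls are per gene from RSA p-values that are not deposited; an individual active-marked siRNA can sensitise only weakly.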 The numbers tell different reagents against one gene apart. Not all columns of the deposit are shown. No sequences are given here.

For CPT1A #1, what does the deposit list?
log2 vehicle/camptothecin viability: -0.0946; outcome: inactive

With CPT1A #2, what does the deposit list?
log2 vehicle/camptothecin viability: -0.039; outcome: inactive

With CPT1A #3, what was measured?
log2 vehicle/camptothecin viability: -0.12; outcome: inactive

With CPT1A #4, what does the deposit list?
log2 vehicle/camptothecin viability: -0.0732; outcome: inactive

2 neighbouring reagents already listed, quoted:
CPT1A #1 — log2 vehicle/camptothecin viability: -0.0946; outcome: inactive
CPT1A #2 — log2 vehicle/camptothecin viability: -0.039; outcome: inactive

Further entries:
For PLCB2 #1, what was measured?
log2 vehicle/camptothecin viability: -0.515; outcome: inactive

For PLCB2 #2, what does the deposit list?
log2 vehicle/camptothecin viability: -0.27; outcome: inactive

Which result is listed for PLCB2 #3?
log2 vehicle/camptothecin viability: -0.225; outcome: inactive

What is on record for RAB27B #1?
log2 vehicle/camptothecin viability: -0.205; outcome: inactive

What did the screen give for RAB27B #2?
log2 vehicle/camptothecin viability: -0.408; outcome: inactive

For RAB27B #3, what does the deposit list?
log2 vehicle/camptothecin viability: -0.133; outcome: inactive

With RAB27B #4, what does the deposit list?
log2 vehicle/camptothecin viability: -0.057; outcome: inactive

For ETFB #1, how do the results read?
log2 vehicle/camptothecin viability: -0.0503; outcome: inactive

With ETFB #2, what does the deposit list?
log2 vehicle/camptothecin viability: 0.0609; outcome: inactive

For ETFB #3, what does the deposit list?
log2 vehicle/camptothecin viability: 0.117; outcome: inactive
